Source: the supplement of paper PMC3334620
The full ranking holds about 33,000 sequences; the median of “E-score (-0.5 to 0.5)” is about -8e-05, and the highest 2% start at about 0.23. Some of the results follow.

biological target: T1, Nrg2 (UniProt P38082); assay: PBM E-score (8-mer binding enrichment) (E-score (-0.5 to 0.5)); higher = stronger / more preferred TF binding; conditions: protein concentration: 100 nM; construct: GST-full length
T1 sequence: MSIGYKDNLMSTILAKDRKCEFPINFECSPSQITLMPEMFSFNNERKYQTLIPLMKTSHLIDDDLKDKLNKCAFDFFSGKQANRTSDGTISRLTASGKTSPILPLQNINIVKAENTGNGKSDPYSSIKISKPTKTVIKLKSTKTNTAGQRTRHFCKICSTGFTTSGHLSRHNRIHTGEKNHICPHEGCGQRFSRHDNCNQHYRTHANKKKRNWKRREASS
Method: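 Universal 'all 10-mer' protein binding microarrays (Agilent AMADID 015681) probed with GST-tagged S. cerevisiae TFs (full-length or DBD) made by in vitro transcription/translation (PURExpress), about 100-200 nM. Bound TF was detected with fluorescent anti-GST. Each ungapped 8-mer (which stands for itself and its reverse complement) is scored by the PBM enrichment score (E-score), a modified Wilcoxon-Mann-Whitney statistic from -0.5 to +0.5, computed with the Universal PBM Analysis Suite. Scale: above 0.35 generally sequence-specific binding.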

Sequence | PBM E-score
CGAACGCG | 0.00338
TCCCTCGA | 0.0839
CGTTTCGC | -0.0766
GCAACTAA | 0.288
GTCGTCTA | -0.0718
AGTAAACA | 0.101
AGGCCTCA | -0.264
CAAGAAGC | 0.0651
CACCCGGA | -0.00226
CCCCGGAC | -0.161
CAACGGAG | 0.0386
CCACTCAG | -0.0321
CTTACAGC | -0.0948
ATCGCCCC | 0.0686
CTTACTAC | 0.102
CAGGACTG | -0.241
GGAGGGAC | -0.2
CACACCCA | 0.00158
ACACTAAC | 0.155
ACTAGTGC | 0.0972
ATTTTTGG | 0.0103
CGATAGAC | -0.0576

Look-ups from the results shown.
Entry for ATTTTTGG under PBM E-score: 0.0103
Entry for CAACGGAG under PBM E-score: 0.0386

Further results

Sequence | PBM E-score
GTCTCCAA | -0.00942
CCTCCTAC | -0.188
GTACTAAA | 0.121
CCGACGTA | -0.0323
CCGCCGGA | 0.0331
GATTGTCC | 0.0806
GCTCACGA | -0.129
ATGCTGTC | -0.117
ATGCGTGA | 0.0673
AACCAAGC | -0.0517
AACCACGC | -0.025
ACAGTTAC | 0.0257
CGGTCGGA | 0.00234
ACAATATC | 0.158
CTATGGTA | -0.0979
GACCATAA | -0.0185
AGTGCGTC | -0.0821
CGCGTACA | 0.0116
TAAAGGAA | -0.133
CGTAGACC | -0.116
AGCGTTCG | -0.03
ATAGGGCG | -0.138

Sequence | PBM E-score
ATAAGCCA | -0.00113
CGCCCACA | 0.156
ACAGGTGG | -0.176
ATGCTACA | 0.0183
CCTGCACG | -0.00448
AAGGTAGC | -0.0182
CGTAAGAA | 0.0261
CTATTGAC | -0.0292
AGAGCTGC | -0.143
GATAATCC | 0.0429
AGTATAGC | -0.0407
AAGTCCCT | 0.101
GGAGAAGA | -0.12
TCCCCTCA | 0.235
CTTTGCTA | -0.0423
CGCCGTAA | 0.0886
GCGTTTAC | -0.196
CTGCTCGA | 0.073
AAACTCGA | 0.101
AGGTCCAG | 0.0696
CAGAAGAC | 0.0683
CGCGTGCC | -6e-05

Sequence | PBM E-score
ACCATATG | -0.0149
TAGCCCCA | 0.155
ACACATGG | -0.0177
CTAAGGAA | 0.0506
GTGAGGCA | -0.108
CCCCCTCC | -0.328
ATGTGCCC | -0.0305
GAGAACGC | -0.0893
CCTGAGTC | 0.0789
ATCACCGG | -0.0938
ATTCCGTA | -0.0204
ATTTGGTG | 0.0939
ACCATGTA | 0.0787
CCGCATAG | 0.0322
GCTTAAAC | -0.129
CTCGCCAA | 0.104
AGGAGCAG | -0.233
CATTACTC | -0.0142
AAACCATT | -0.0576
GTAATGAA | 0.0518
